Data as given in PubChem BioAssay AID1259254 (NCATS, 2017)

- Aim: 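Finding genes that stop cells copying their DNA twice in one cycle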 (primary screen)
- Cells: human HCT116 colorectal cancer cells
- Reagents: single siRNA against human genes
- Timing: 3 days
- Read-out: 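Imaged Hoechst DNA stain sorts each cell into a cycle phase by DNA amount; per plate, G2 fraction set to 0% for non-targeting and 100% for GMNN siRNA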
- Reading the numbers: G2 robust z-score and G2 cells, % of GMNN control: higher = more G2 cells, more excess DNA replication
- Rule for the call: 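Active siRNAs have a G2 robust z of 5 or more median absolute deviations over the median, which in these data means about 38% or higher of GMNN control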
This is one part, drawn at random, of about 59,000 reagents tested. In the full data, about 1,550 (2.6%) got an active call. 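G2 share is only a proxy for re-replication; each gene was hit by three separate siRNAs, and active genes were retested.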 Reagents against one gene are numbered here. Not all columns of the deposit are shown. Not given: the amount of reagent.

After knock-down of GSTCD (GeneID 79807) #1, the screen gave G2 robust z-score 0.272; G2 cells, % of GMNN control 4.88; inactive.
With knock-down of GSTCD (GeneID 79807) #2, the record shows G2 robust z-score 1.19; G2 cells, % of GMNN control 11.4; inactive.
For GSTCD (GeneID 79807) #3 the deposit lists G2 robust z-score 3.62; G2 cells, % of GMNN control 28.5; inactive.
Silencing of EIF4G2 (GeneID 1982) #1 resulted in: G2 robust z-score -0.434; G2 cells, % of GMNN control -0.0884; inactive.
After knock-down of EIF4G2 (GeneID 1982) #2 the results were G2 robust z-score -0.785; G2 cells, % of GMNN control -2.55; inactive.
With knock-down of EIF4G2 (GeneID 1982) #3 the results were G2 robust z-score 1.55; G2 cells, % of GMNN control 13.8; inactive.
Silencing of SF3B2 (GeneID 10992) #1 resulted in: G2 robust z-score 0.994; G2 cells, % of GMNN control 9.96; inactive.
Silencing of SF3B2 (GeneID 10992) #2 gave: G2 robust z-score 1.34; G2 cells, % of GMNN control 12.4; inactive.
For SF3B2 (GeneID 10992) #3, the values are G2 robust z-score 0.294; G2 cells, % of GMNN control 5.03; inactive.
Against LNP1 (GeneID 348801) #1, the values are G2 robust z-score -0.665; G2 cells, % of GMNN control -1.71; inactive.
Knock-down of LNP1 (GeneID 348801) #2 gave: G2 robust z-score -0.0166; G2 cells, % of GMNN control 2.85; inactive.
LNP1 (GeneID 348801) #3 showed G2 robust z-score -0.861; G2 cells, % of GMNN control -3.09; inactive.
After knock-down of LRRC4C (GeneID 57689) #1, the screen gave G2 robust z-score -0.818; G2 cells, % of GMNN control -2.79; inactive.
Against LRRC4C (GeneID 57689) #2, the entry reads G2 robust z-score 3; G2 cells, % of GMNN control 24.1; inactive.
LRRC4C (GeneID 57689) #3 showed G2 robust z-score -0.589; G2 cells, % of GMNN control -1.18; inactive.
Silencing of SCN11A (GeneID 11280) #1 came out at: G2 robust z-score 0.506; G2 cells, % of GMNN control 6.53; inactive.
Silencing of SCN11A (GeneID 11280) #2 came out at: G2 robust z-score 0.67; G2 cells, % of GMNN control 7.68; inactive.
For SCN11A (GeneID 11280) #3, the entry reads G2 robust z-score 1.11; G2 cells, % of GMNN control 10.7; inactive.
Silencing of P4HA1 (GeneID 5033) #1 resulted in: G2 robust z-score 0.602; G2 cells, % of GMNN control 7.2; inactive.
After knock-down of P4HA1 (GeneID 5033) #2 the results were G2 robust z-score 0.452; G2 cells, % of GMNN control 6.15; inactive.
Depletion of P4HA1 (GeneID 5033) #3 resulted in: G2 robust z-score -0.0545; G2 cells, % of GMNN control 2.58; inactive.
Knock-down of CCR10 (GeneID 2826) #1 came out at: G2 robust z-score 0.0162; G2 cells, % of GMNN control 3.08; inactive.
Depletion of CCR10 (GeneID 2826) #2 resulted in: G2 robust z-score -0.841; G2 cells, % of GMNN control -2.95; inactive.
CCR10 (GeneID 2826) #3 gave G2 robust z-score 4.09; G2 cells, % of GMNN control 31.8; inactive.

Part of the list above, reduced to “G2 cells, % of GMNN control”.
SCN11A (GeneID 11280) #1: 6.53
SCN11A (GeneID 11280) #2: 7.68
SCN11A (GeneID 11280) #3: 10.7
